Over roughly 33,000 sequences, “E-score (-0.5 to 0.5)” has its median near -0.015; the highest 2% begin near 0.3. The list shows a part of the results.
molecular target: T1, Abf1 (UniProt P14164); experiment: PBM E-score (8-mer binding enrichment) (E-score (-0.5 to 0.5)); higher = stronger / more preferred TF binding; settings: protein concentration: 200 nM; construct: GST-full length
T1 sequence: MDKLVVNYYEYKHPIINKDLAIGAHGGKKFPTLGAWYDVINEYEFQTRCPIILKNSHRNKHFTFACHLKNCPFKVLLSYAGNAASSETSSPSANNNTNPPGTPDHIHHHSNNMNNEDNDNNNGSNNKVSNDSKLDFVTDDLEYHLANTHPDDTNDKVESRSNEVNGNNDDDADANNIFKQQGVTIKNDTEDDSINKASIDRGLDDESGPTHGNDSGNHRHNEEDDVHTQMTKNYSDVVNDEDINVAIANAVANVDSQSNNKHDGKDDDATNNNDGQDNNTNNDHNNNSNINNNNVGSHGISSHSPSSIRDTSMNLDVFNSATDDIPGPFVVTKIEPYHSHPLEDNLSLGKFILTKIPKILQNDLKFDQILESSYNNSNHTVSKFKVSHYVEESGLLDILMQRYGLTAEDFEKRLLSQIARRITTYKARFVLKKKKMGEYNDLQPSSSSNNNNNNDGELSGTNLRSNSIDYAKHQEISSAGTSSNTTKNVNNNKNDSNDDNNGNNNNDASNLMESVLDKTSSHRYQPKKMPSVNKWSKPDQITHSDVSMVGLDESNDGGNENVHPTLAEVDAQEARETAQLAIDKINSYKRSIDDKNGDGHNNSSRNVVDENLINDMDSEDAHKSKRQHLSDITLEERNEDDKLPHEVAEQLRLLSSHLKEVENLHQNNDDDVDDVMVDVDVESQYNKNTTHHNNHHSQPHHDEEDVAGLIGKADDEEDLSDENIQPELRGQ
How it was run: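 The E-score, a modified Wilcoxon-Mann-Whitney statistic, was computed by the Universal PBM Analysis Suite for every ungapped eight-base word pooled with its reverse complement. Scans behind it were normalised with masliner after bound GST-tagged yeast transcription factors were detected with fluorescent anti-GST. The proteins, at about 100-200 nM, had been applied to universal all-10-mer Agilent arrays made double-stranded by primer extension.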

| Sequence | PBM E-score |
| --- | --- |
| CATATGAG | 0.0546 |
| GTAGGGAC | -0.0699 |
| ACTGGTGC | -0.0134 |
| GAGGCGGC | -0.0954 |
| TAGCCTAA | -0.0815 |
| CCCTTCCC | -0.279 |
| GCCTCCTA | -0.221 |
| TCAATTCA | 0.107 |
| GGGCGAGA | -0.0834 |
| AGCTATAT | 0.0917 |
| CGCTGAAA | 0.0323 |
| AGTCTCCC | -0.205 |
| AGCGGACG | 0.00093 |
| CTCTTCGA | -0.0334 |
| CCGCGAGG | -0.133 |
| AAAAAACC | -0.154 |
| AGAGCCAA | -0.177 |
| TGGGACCA | -0.219 |
| GCTGGACA | -0.135 |
| AAGTGCCG | -0.0786 |
| CTCCATAA | -0.0534 |
| CTAAGACC | -0.227 |
| AGATGTCC | -0.00069 |
| AAAACCGG | -0.099 |
| AGTGCCAC | -0.177 |

| Sequence | PBM E-score |
| --- | --- |
| AAGCTGGG | -0.103 |
| GCGTGCAA | 0.0992 |
| CAGGAAGC | -0.146 |
| ACTAAATG | 0.0946 |
| GAGTAAAA | 0.0646 |
| GCCCACGA | 0.019 |
| CTGGCAAA | 0.00304 |
| ATCTTCGA | 0.0143 |
| AATACCCG | -0.0667 |
| ACTCCAAT | 0.0555 |
| GCGTGAAA | 0.133 |
| CTGAACTC | -0.191 |
| TCCTCCAA | -0.102 |
| ATGACTGC | 0.0387 |
| GAGTGTGC | -0.0353 |
| ACTATGTA | 0.0666 |
| ATGACTTG | 0.233 |
| GTGCGATA | 0.073 |
| CCTAGGGA | -0.0697 |
| CCCCAAGC | -0.0905 |
| CGGCCGAG | 0.0212 |
| TCAATAGA | -0.172 |
| ACAACGCC | 0.13 |
| GAGAATGC | 0.202 |
| TACATAAA | 0.0202 |

Four entries picked at random from the list so far:

| Sequence | PBM E-score |
| --- | --- |
| CTGGCAAA | 0.00304 |
| GCCCACGA | 0.019 |
| ACAACGCC | 0.13 |
| ACTCCAAT | 0.0555 |

Reformatted: entries from further up.
AAGTGCCG
  PBM E-score: -0.0786
CTCCATAA
  PBM E-score: -0.0534
CTAAGACC
  PBM E-score: -0.227

Next records follow.

| Sequence | PBM E-score |
| --- | --- |
| CACAATTC | 0.102 |
| GAGCGCCC | -0.239 |
| AGCGAGTC | -0.0419 |
| AGTGCAAG | 0.0176 |
| AACCGAGC | -0.042 |
| ATGGCCTC | -0.152 |
| AAGGTACT | 0.0524 |
| ACTATCAC | 0.288 |
| GGGGCCGA | -0.154 |
| TAGATCCA | -0.0512 |
| CTGTGGCA | 0.152 |
| CATAGTAA | 0.126 |
| CCTTTGAA | -0.0053 |
| ACGGGGGC | -0.166 |
| CGTGATTC | 0.166 |
| TCGCCACA | 0.122 |
| CGCCACAA | -0.029 |
| ACTCCCCT | -0.0144 |
| GATCCTAC | 0.13 |
| CAAAGTGC | -0.00433 |
| AGGTGTAA | 0.0121 |
| ATCTCTGG | -0.127 |
| CGCTGGTC | -0.178 |
| ATCGCGAT | 0.411 |
| TGGTGACA | 0.357 |

| Sequence | PBM E-score |
| --- | --- |
| CCAGACAG | -0.2 |
| CCAACAGC | -0.209 |
| GAGGCGGA | -0.136 |
| ATCTGGCG | -0.0132 |
| ACTCGTAA | 0.173 |
| CCTGTTAG | -0.0285 |
| CATATATC | 0.133 |
| AAGTACCC | -0.234 |
| CGTGAATA | 0.179 |
| GACCTTAC | -0.00555 |
| ACCCCAAG | -0.241 |
| ATCGGACA | -0.0283 |
| CGGAAGCA | 0.105 |
| ATTGGCGG | 0.00549 |
| CCCGGTGC | -0.306 |
| CCCTATAC | 0.111 |
| AAGATCTA | -0.042 |
| AACGTCCA | 0.0678 |
| TCCGCAAA | -0.171 |
| GCGGCTGA | -0.23 |
| CGGATTAG | 0.148 |
| CCAACGGC | -0.0507 |
| GTTATAGA | 0.116 |
| AAAAAATG | 0.203 |
| CGGCGGTA | 0.0868 |

| Sequence | PBM E-score |
| --- | --- |
| GGGAAGGA | -0.183 |
| ATGGAGCG | 0.0862 |
| ATCTAACA | 0.183 |
| GGAGTCCC | -0.156 |
| CCTATACG | 0.244 |
| TAGTTCAA | -0.0129 |
| AGTGGTCG | -0.122 |
| TAGTGAGA | 0.0964 |
| AACTCACG | 0.132 |
| CAAATAAC | 0.183 |
| AATCAACT | 0.0462 |
| TAGAAGAA | -0.0339 |
| AGTTTTAT | 0.158 |
| CCGAAGTA | -0.159 |
| CGCCATAC | -0.00106 |
| CAATGCCA | -0.0118 |
| CGTTCTTA | 0.181 |
| ACATCGCC | 0.0117 |
| AACCATTC | -0.0388 |
| GGGGCGAC | -0.213 |
| CGTACGCA | 0.217 |
| TCCTGCAA | -0.0922 |
| CGACATAG | 0.0712 |
| TGGCATAA | 0.151 |
| AAAAATTG | 0.131 |

| Sequence | PBM E-score |
| --- | --- |
| AAAGGACG | -0.00645 |
| CTGGAGAC | -0.105 |
| TGACTGCA | -0.0999 |
| ATATAAAG | 0.146 |
| GGCGCATA | 0.0602 |
| TGCATCAA | 0.00549 |
| TGGCCTAA | -0.0262 |
| AACCGTCT | -0.0069 |
| ATCATCCA | 0.232 |
| CATGAGAC | 0.0408 |
| CTCTGAAG | -0.207 |
| CAAGACCG | -0.137 |
| ACTGCCTC | -0.111 |
| GATAGTAA | -0.0163 |
| GTCAAAAC | 0.129 |
| TATGTACA | -0.00779 |
| AAAGCCAC | -0.0309 |
| AGGCCCGC | -0.16 |
| CACATCGC | 0.0644 |
| AAAACGTC | 0.154 |
| GTGAGCTA | -0.0446 |
| CCCACTAG | -0.274 |
| TCAGATGA | 0.0431 |
| GTAGGTGA | 0.132 |
| CGTAAGCC | 0.0656 |

| Sequence | PBM E-score |
| --- | --- |
| AGGGGCCA | -0.172 |
| CGATGGCC | 0.0627 |
| CTCGACTA | -0.0531 |
| AGTAATAG | 0.0165 |
| GCAGTACC | -0.138 |
| CAGGGCAC | -0.125 |
| AAGCGACG | 0.0184 |
| AACTCAAA | 0.0455 |
| ATCTGTAG | -0.0843 |
| GCCACAGC | -0.0459 |
| TACACGGA | 0.329 |
| AGATTGTA | 0.0406 |
| AAAAAGCC | 0.0341 |
| TATCTAAA | -0.00462 |
| ATGGGGAG | -0.163 |
| GGTTTCGA | -0.156 |
| GCGCTCTA | -0.0693 |
| TAACGCGA | 0.179 |
| CCGGTAAG | -0.0289 |
| TGACGAAA | 0.349 |
| CTGTACAA | 0.109 |
| TACGGAGA | 0.189 |
